# Measurements from publication PMC7819943, “Rice protein-binding microarrays: a tool to detect cis-acting elements near promoter regions in rice”.
# The chains behind the UniProt entries cited, without tags or fusion partners.
# UniProt Q0JBA9, entry or part of it: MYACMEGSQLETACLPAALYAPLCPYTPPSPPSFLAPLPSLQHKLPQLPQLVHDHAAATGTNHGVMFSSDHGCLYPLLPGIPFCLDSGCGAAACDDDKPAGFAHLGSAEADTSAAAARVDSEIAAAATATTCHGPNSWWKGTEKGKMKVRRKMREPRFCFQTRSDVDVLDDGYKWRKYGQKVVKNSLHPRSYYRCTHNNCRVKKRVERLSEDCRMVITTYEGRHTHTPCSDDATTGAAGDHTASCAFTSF
# Some of the results follow.
# Biological target: OsWRKY34 (Oryza sativa, UniProt Q0JBA9 1-250)
# Test: protein-binding microarray (RPBM); PBS, 2% BSA, 51.3 ng/ul salmon testes DNA, 50 uM zinc acetate, 200 nM TF, 25 C, 1 h; high values mean tight binding
# Settings: protein: recombinant; tags: N-terminal polyhistidine and DsRed monomer fusion (pET32a); label: CyDye5-dUTP incorporated in the synthesized complementary strand; 3' TTTTT single-stranded linker to array surface; dsDNA, one strand shown
# How it was run: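 The binding signal for each feature is its fluorescence intensity in arbitrary units. An Axon 4000B scanner was used to read a custom Agilent array that had been made double-stranded with Cy5-dUTP primer extension, blocked with 2% BSA, incubated at 25 °C for 1 h with 200 nM protein in PBS, 2% BSA, salmon testes DNA and 50 µM zinc acetate, and washed. The protein was an N-terminal polyhistidine–DsRed transcription factor fusion from E. coli BL21-CodonPlus, purified on Ni–NTA.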
row,Sequence,binding signal
1,TGAGGGACCTTTTGCCATTTTCTTTCTTTTGGTGGGACCCCGGAGTCACCTAGTGCAG,9750 fluorescence intensity (a.u.)
2,GTCCACCCGTTTCTTGCATGCCGCCTAAATAATTATGAAACGGAGTCACCTAGTGCAG,11700 fluorescence intensity (a.u.)
3,GGCCCACCGTATTCGCTGAACCCATCACTTCCCGTACACCCGGAGTCACCTAGTGCAG,13400 fluorescence intensity (a.u.)
4,GCATATGTTTGACCGTTCATCTTATTTAAAAACTTTTATGCGGAGTCACCTAGTGCAG,8950 fluorescence intensity (a.u.)
5,CACACTGTGCACGCCATTCTTATCTTGTCTAGCTTCATCTCGGAGTCACCTAGTGCAG,16600 fluorescence intensity (a.u.)
6,CCCAGCTGCGTCGCCATTCTTCACCCACCATCCCAGTGCCCGGAGTCACCTAGTGCAG,10300 fluorescence intensity (a.u.)
7,GCCATTCCCCACCACCACCTGTCGACGGCGTACGACTACTCGGAGTCACCTAGTGCAG,8320 fluorescence intensity (a.u.)
8,TAGGTGTGTGGCTGCTTTTGTAACTTGTCTCTGAAAACGTCGGAGTCACCTAGTGCAG,9670 fluorescence intensity (a.u.)
9,CTGGAAGCACACACTCTTCTCTCTTCCCCGTATCATCCGGCGGAGTCACCTAGTGCAG,8260 fluorescence intensity (a.u.)
10,GCTCTTGGCGTCGTTGACATCCATTGCTAAGTCCCACGCTCGGAGTCACCTAGTGCAG,10700 fluorescence intensity (a.u.)
11,ATCTCTAATTCTATTGGGTGCATGTATTGTACTATTTATTCGGAGTCACCTAGTGCAG,9280 fluorescence intensity (a.u.)
12,AATATGTGGGTGATTTGTTGTAATGGAGTATGTGGTGGAGCGGAGTCACCTAGTGCAG,10000 fluorescence intensity (a.u.)
13,AGGCACGCACTATTTTGCAATCCAATAGCTTAGATTTTTGCGGAGTCACCTAGTGCAG,8210 fluorescence intensity (a.u.)
14,ACCCACCACCATCTCTTCTCTCACTAACACCTCGGGACAACGGAGTCACCTAGTGCAG,9180 fluorescence intensity (a.u.)
15,AGAGGGTTGGTGTAGTGGCAGGGGAGTGACGGTGCGCGGTCGGAGTCACCTAGTGCAG,9010 fluorescence intensity (a.u.)
16,GTCCATTTAATTTCTAGTTTGTTATTGATTTCTATATAATCGGAGTCACCTAGTGCAG,8760 fluorescence intensity (a.u.)
17,TTCTCGTGATCGATCGCTATATCGCTATAACCGCTGCTAACGGAGTCACCTAGTGCAG,9390 fluorescence intensity (a.u.)
18,ATTGCCGTCCTCACCGTCGTTCGGCTTTGCCGGCGGCTGCCGGAGTCACCTAGTGCAG,12100 fluorescence intensity (a.u.)
19,GGACATTTTATTTGGTCTTTGCTTAGGTTTTTGATTGTTTCGGAGTCACCTAGTGCAG,10900 fluorescence intensity (a.u.)
20,CCTCTGGTCACGCATTCTACACAGAATCTCTGGTTTTCCCCGGAGTCACCTAGTGCAG,9500 fluorescence intensity (a.u.)
21,GGCCTGGGTAGGGTTGACCTTCTCTACTTCATGTAGGACTCGGAGTCACCTAGTGCAG,10800 fluorescence intensity (a.u.)

# Fetched one by one from above (7):
row,Sequence,binding signal
4,GCATATGTTTGACCGTTCATCTTATTTAAAAACTTTTATGCGGAGTCACCTAGTGCAG,8950 fluorescence intensity (a.u.)
6,CCCAGCTGCGTCGCCATTCTTCACCCACCATCCCAGTGCCCGGAGTCACCTAGTGCAG,10300 fluorescence intensity (a.u.)
14,ACCCACCACCATCTCTTCTCTCACTAACACCTCGGGACAACGGAGTCACCTAGTGCAG,9180 fluorescence intensity (a.u.)
18,ATTGCCGTCCTCACCGTCGTTCGGCTTTGCCGGCGGCTGCCGGAGTCACCTAGTGCAG,12100 fluorescence intensity (a.u.)
16,GTCCATTTAATTTCTAGTTTGTTATTGATTTCTATATAATCGGAGTCACCTAGTGCAG,8760 fluorescence intensity (a.u.)
12,AATATGTGGGTGATTTGTTGTAATGGAGTATGTGGTGGAGCGGAGTCACCTAGTGCAG,10000 fluorescence intensity (a.u.)
9,CTGGAAGCACACACTCTTCTCTCTTCCCCGTATCATCCGGCGGAGTCACCTAGTGCAG,8260 fluorescence intensity (a.u.)

# Further results follow.

row,Sequence,binding signal
1,ACCCCATCCAGCATTTCGACCCATCACCATGGCATCAATCCGGAGTCACCTAGTGCAG,9880 fluorescence intensity (a.u.)
2,CCTCCACGCCCGCTCTCGGCCTACACCACAGACTCAAATCCGGAGTCACCTAGTGCAG,8320 fluorescence intensity (a.u.)
3,CCTAAGTAGCTCGCTAGTGGGGAGAGGGGCGTGGCTGATGCGGAGTCACCTAGTGCAG,11100 fluorescence intensity (a.u.)
4,ACTTCTGTGTTTTTCCTCTATGATCATAGCTGAAACCATTCGGAGTCACCTAGTGCAG,8470 fluorescence intensity (a.u.)
5,TCTTTAGGTCTCTGCAGTCTACATACATCATTACCGAATTCGGAGTCACCTAGTGCAG,8780 fluorescence intensity (a.u.)
6,CGTTACTGCCTGACGTCATCCACCTCTCCTGTTTCCGTTTCGGAGTCACCTAGTGCAG,8600 fluorescence intensity (a.u.)
7,CTAGTACTCCGTATATCTCGATCGCAACCTCATGGCGTGACGGAGTCACCTAGTGCAG,11100 fluorescence intensity (a.u.)
8,CTAGCCCGTTAACATTACTGTTCATCTCCCTATCCGTCTCCGGAGTCACCTAGTGCAG,9570 fluorescence intensity (a.u.)
9,CCATCTATCCCATTCACTGGCGTCCGCCGCCGCCGCTATGCGGAGTCACCTAGTGCAG,9390 fluorescence intensity (a.u.)
10,CCCAATTGTTTGTCATGTAATTTGAGTCCACATCATCACACGGAGTCACCTAGTGCAG,9300 fluorescence intensity (a.u.)
11,TTCGAGCCATGTGTTTCGAGGTTTTTTTTTTATTTTCTCGCGGAGTCACCTAGTGCAG,8040 fluorescence intensity (a.u.)
12,ATGCCTACATCCTCCAAACAAACCAAACCCGTCGACACTTCGGAGTCACCTAGTGCAG,8570 fluorescence intensity (a.u.)
13,CTCTCCTCGATCTCTCCTGCAATCCTCATCACACAGCAAACGGAGTCACCTAGTGCAG,9150 fluorescence intensity (a.u.)
14,AGGAAATCACAAATCAGATGTTATAATGCCTAGTTTTTACCGGAGTCACCTAGTGCAG,8110 fluorescence intensity (a.u.)
15,TCGATCCTCAACATCTCCCTTTTTTTTCTCTTGTCCTTTCCGGAGTCACCTAGTGCAG,11500 fluorescence intensity (a.u.)
16,ATCGCAGCCCAATCCTCATTCCTCCACGGGTCCATCCTATCGGAGTCACCTAGTGCAG,8670 fluorescence intensity (a.u.)
17,GTATTTTGTGCCAATTGACTTCTTGTTAGTTTATTATAATCGGAGTCACCTAGTGCAG,11500 fluorescence intensity (a.u.)
18,GCGATCTTTAGTCCCGGATTGGTACTCCCGGTTTGGAAACCGGAGTCACCTAGTGCAG,8920 fluorescence intensity (a.u.)
19,GCATAGATTTTTAGAGGTTTTTTGTGGAATCATCTTTTGTCGGAGTCACCTAGTGCAG,9230 fluorescence intensity (a.u.)
20,CCGACCGTTTTCATCCCGACTCCATCCAATCCGCTAGTTGCGGAGTCACCTAGTGCAG,8920 fluorescence intensity (a.u.)
21,CGTTGACTTTTTAAAATATATTTGACCGTTCGTCTTATTCCGGAGTCACCTAGTGCAG,24100 fluorescence intensity (a.u.)

row,Sequence,binding signal
1,TGACATGTGGGGTTCTAGGAATAGGCGTGTATCTAACAAGCGGAGTCACCTAGTGCAG,9320 fluorescence intensity (a.u.)
2,GCAGTGACTTCCACTTCCTGTACGTAACTTTCCATATGCCCGGAGTCACCTAGTGCAG,10000 fluorescence intensity (a.u.)
3,TTTCCACACGTCGCGATCCCTCACCCAACCATGCAAAAGTCGGAGTCACCTAGTGCAG,12600 fluorescence intensity (a.u.)
4,GAACGGAGGCGCTTTATACTTCTCTTCGCCTTGTCAAATTCGGAGTCACCTAGTGCAG,9770 fluorescence intensity (a.u.)
5,TCTTGGTCAAATTTGTTCTTCATCTTTGATCAATTCAGTTCGGAGTCACCTAGTGCAG,11900 fluorescence intensity (a.u.)
6,ATGGTGGGTGCATCACTGCTGGTCTTGGTTTCGTCAGCGCCGGAGTCACCTAGTGCAG,11500 fluorescence intensity (a.u.)
7,ATCATCTCCTCTCGGTCCATCACAACACCTCCGCCTCCCACGGAGTCACCTAGTGCAG,8080 fluorescence intensity (a.u.)
8,GCCCTGCGTCACACGGCATTCTTGTCCCGTATCCGCGCCCCGGAGTCACCTAGTGCAG,8430 fluorescence intensity (a.u.)
9,GCACTCTGCATCCGCTATACATTATTGTTCTGCTTTACTCCGGAGTCACCTAGTGCAG,10100 fluorescence intensity (a.u.)
10,TTTTTTCTCCGGCTTATATGGATAGTATCGATTCCCCTGTCGGAGTCACCTAGTGCAG,9310 fluorescence intensity (a.u.)
11,CCTCTGGTTGTCGGAGCCTCATCAATCTCACTCATTCTCACGGAGTCACCTAGTGCAG,9280 fluorescence intensity (a.u.)
12,GCTGATGAAACTGATCCATACCGTACCGTACCATTGCCAACGGAGTCACCTAGTGCAG,10100 fluorescence intensity (a.u.)
13,CGGTTTCGTTTGAGATTTTTTTTTGGTGGTTTTGATTTCGCGGAGTCACCTAGTGCAG,8640 fluorescence intensity (a.u.)
14,GGGTGGCGTCCTGTTGTCATCTTTTATCCCTCTTGAATTCCGGAGTCACCTAGTGCAG,21500 fluorescence intensity (a.u.)
15,ACGGGGCGCATTTATTCATCCCCACCTTTGTTCATCAGTTCGGAGTCACCTAGTGCAG,11600 fluorescence intensity (a.u.)
16,AGGGAGAGGATTCCCGGCGAGCCGGCGGGCGGGCGGGATACGGAGTCACCTAGTGCAG,10300 fluorescence intensity (a.u.)
17,GCCCTTCCTCTCCTCACTCACACTGCCCTGTTCATCTCTTCGGAGTCACCTAGTGCAG,8540 fluorescence intensity (a.u.)
18,CCTACGTGTGAAATCAACCACTCTTATCCCATCCGTCCATCGGAGTCACCTAGTGCAG,8990 fluorescence intensity (a.u.)
19,ATATATGCAGAGGCATGATGCCTGCTGGGCACTCTCTGAACGGAGTCACCTAGTGCAG,8690 fluorescence intensity (a.u.)
20,CATTGTTTTCTAATATTCGGCCATGGCTTTTGACATTTTACGGAGTCACCTAGTGCAG,8430 fluorescence intensity (a.u.)
21,ATACTACCTGAGTACAGGGTGGGGTGCTGTTGCTGCGTGCCGGAGTCACCTAGTGCAG,9150 fluorescence intensity (a.u.)

row,Sequence,binding signal
1,GTACATTCACGTTCCGCCCAACTACCCCTTGTTTGAACCTCGGAGTCACCTAGTGCAG,9650 fluorescence intensity (a.u.)
2,CATCTCTATTCTTAAACCCCGTTCATGTAGTTCACAACATCGGAGTCACCTAGTGCAG,10200 fluorescence intensity (a.u.)
3,GCAACATCACCGTTTTTCTCTACTATCTTAGGTTGTGTTCCGGAGTCACCTAGTGCAG,8670 fluorescence intensity (a.u.)
4,TAACAAATATCGTGTGTTTCTGTATCGTCATCTGCTGTATCGGAGTCACCTAGTGCAG,8120 fluorescence intensity (a.u.)
5,AGTGTAAAGCTTAGTTTAAGGGGTTTTATTTATTCCGATACGGAGTCACCTAGTGCAG,8490 fluorescence intensity (a.u.)
6,CCGCGTCCTCCCTTTGCCTTTGCCGCTATCCTCTCGGTCGCGGAGTCACCTAGTGCAG,8700 fluorescence intensity (a.u.)
7,TTCCACTTGATTTCGTGAAATTTCGAATTTCACCGGTGCTCGGAGTCACCTAGTGCAG,8310 fluorescence intensity (a.u.)
8,TATATATATATGTGGTGGGTTTTATCAAGATTCTTCCATTCGGAGTCACCTAGTGCAG,9470 fluorescence intensity (a.u.)
9,ACAAACTTCTGACTTTTTTATCACAACGTTCCAATTTCAACGGAGTCACCTAGTGCAG,9580 fluorescence intensity (a.u.)
10,AGCATTTAGTCACCAGCGCTTTGGATGCTTTACCTCTTTACGGAGTCACCTAGTGCAG,11600 fluorescence intensity (a.u.)
11,TGACGTTTGCTCTGACGCGTTTTTCTGTAGTTATTATCACCGGAGTCACCTAGTGCAG,10100 fluorescence intensity (a.u.)
12,TTTTCGCAGCCTTAGGTTTACGTTCAGTATTTTGTATTGCCGGAGTCACCTAGTGCAG,9680 fluorescence intensity (a.u.)
13,GTTTTTCCACCGGTTTTTCATCTGCGCGCCGTACCTCTGCCGGAGTCACCTAGTGCAG,9300 fluorescence intensity (a.u.)
14,CCGTAGTAGCCTTGTTAGCTAAGCAAAAGCCCACGCGCGACGGAGTCACCTAGTGCAG,8340 fluorescence intensity (a.u.)
15,CACAGCCGCCTACCTTGCTCCAATATATAAGAACTTGAAACGGAGTCACCTAGTGCAG,9600 fluorescence intensity (a.u.)
16,ACCACATCCTTCTTCTTCCTGTCTCACGCCTCAAAAACTTCGGAGTCACCTAGTGCAG,15600 fluorescence intensity (a.u.)
17,GTGCAGGTTTGGCCATAATCATTTTTTGCTGCTATATGTTCGGAGTCACCTAGTGCAG,8970 fluorescence intensity (a.u.)
18,ACTACTTTCTGCGAACTTCTGATCGACCATTGCAGAATCCCGGAGTCACCTAGTGCAG,8840 fluorescence intensity (a.u.)
19,TCAGATTTAAGCCAAGCATGTGTTATTGTATAATGGTTTCCGGAGTCACCTAGTGCAG,8790 fluorescence intensity (a.u.)
20,TCTCTCCTATAGTGGTCATCAATTGTTTGTTTTGAGTAAACGGAGTCACCTAGTGCAG,11000 fluorescence intensity (a.u.)
21,CACGTACTAACTGGCGGGGTTGTGTCATCTTGTCTATGGTCGGAGTCACCTAGTGCAG,8500 fluorescence intensity (a.u.)
